# Some of the results follow.
# B1: Protectin (Homo sapiens), P13987 (protein)
# chain: MGIQGGSVLFGLLLVLAVFCHSGHSLQCYNCPNPTADCKTAVNCSSDFDACLITKAGLQVYNKCWKFEHCNFNDVTTRLRENELTYYCCKKDLCNFNEQLENGGTSLSEKTVLLLVTPFLAAAWSLHP
# Columns and labels:
# Assay in all cases: glycan array binding signal (z-score within array); higher = stronger binding
# Conditions in all cases: glycan notation: IUPAC condensed, linker removed
# [1] = target: Man(a1-2)Man(a1-3)[Man(a1-6)]Man(a1-6)[Man(a1-2)Man(a1-3)]Man(b1-4)GlcNAc(b1-4)GlcNAc
# In short: (§1)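 Glycan array data came from 3228 arrays in the Consortium for Functional Glycomics database, and only arrays with an available protein sequence were kept. Glycan names were put into IUPAC-condensed notation, and columns mapping to the same glycan were averaged. The binding signal is a within-array Z-score, averaged across arrays of one protein sequence run at different concentrations or buffers and across linkers. A negative Z-score can be read as non-binding.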
# [2] = target: Man(a1-2)Man(a1-6)[Man(a1-3)]Man(a1-6)[Man(a1-2)Man(a1-2)Man(a1-3)]Man
# In short: as §1
# [3] = target: Man(a1-2)Man(a1-6)[Man(a1-3)]Man(a1-6)[Man(a1-2)Man(a1-2)Man(a1-3)]Man(b1-4)GlcNAc(b1-4)GlcNAc
# In short: as §1
# Man(a1-3)[Man(a1-6)]Man = target: Man(a1-3)[Man(a1-6)]Man
# In short: as §1
# [4] = target: Man(a1-3)[Man(a1-6)]Man(a1-6)[Man(a1-2)Man(a1-3)]Man(b1-4)GlcNAc(b1-4)GlcNAc
# In short: as §1
# [5] = target: Man(a1-3)[Man(a1-6)]Man(a1-6)[Man(a1-3)]Man
# In short: as §1
# [6] = target: Man(a1-3)[Man(a1-6)]Man(a1-6)[Man(a1-3)]Man(b1-4)GlcNAc(b1-4)GlcNAc
# In short: as §1
# [7] = target: Man(a1-3)[Man(a1-6)]Man(b1-4)GlcNAc(b1-4)GlcNAc
# In short: as §1
# Man(a1-6)Man = target: Man(a1-6)Man
# In short: as §1
# Man(b1-4)GlcNAc = target: Man(b1-4)GlcNAc
# In short: as §1
# Neu5Ac(a2-3)Gal = target: Neu5Ac(a2-3)Gal
# In short: as §1
# [8] = target: Neu5Ac(a2-3)Gal(b1-3)GalNAc
# In short: as §1
# [9] = target: Neu5Ac(a2-3)Gal(b1-3)GalNAc(b1-3)Gal(a1-4)Gal(b1-4)Glc
# In short: as §1
# [10] = target: Neu5Ac(a2-3)Gal(b1-3)GalNAc(b1-4)[Neu5Ac(a2-3)]Gal(b1-4)Glc
# In short: as §1
# [11] = target: Neu5Ac(a2-3)Gal(b1-3)GalNAc(b1-4)[Neu5Ac(a2-8)Neu5Ac(a2-3)]Gal(b1-4)Glc
# In short: as §1
# [12] = target: Neu5Ac(a2-3)Gal(b1-3)GalNAc6S
# In short: as §1
# [13] = target: Neu5Ac(a2-3)Gal(b1-3)GlcNAc
# In short: as §1
# [14] = target: Neu5Ac(a2-3)Gal(b1-3)GlcNAc(b1-3)Gal(b1-3)GlcNAc
# In short: as §1
# [15] = target: Neu5Ac(a2-3)Gal(b1-3)GlcNAc(b1-3)Gal(b1-4)GlcNAc
# In short: as §1
# [16] = target: Neu5Ac(a2-3)Gal(b1-3)GlcNAc(b1-3)GalNAc
# In short: as §1
# [17] = target: Neu5Ac(a2-3)Gal(b1-3)GlcNAc6S
# In short: as §1
# [18] = target: Neu5Ac(a2-3)Gal(b1-3)[Fuc(a1-4)]GlcNAc
# In short: as §1
# [19] = target: Neu5Ac(a2-3)Gal(b1-3)[Fuc(a1-4)]GlcNAc(b1-3)Gal(b1-3)[Fuc(a1-4)]GlcNAc
# In short: as §1
# [20] = target: Neu5Ac(a2-3)Gal(b1-3)[Fuc(a1-4)]GlcNAc(b1-3)Gal(b1-4)[Fuc(a1-3)]GlcNAc
# In short: as §1
# [21] = target: Neu5Ac(a2-3)Gal(b1-3)[Neu5Ac(a2-3)Gal(b1-4)]GlcNAc
# In short: as §1
# [22] = target: Neu5Ac(a2-3)Gal(b1-3)[Neu5Ac(a2-6)]GalNAc
# In short: as §1
# Neu5Ac(a2-3)Gal(b1-4)Glc = target: Neu5Ac(a2-3)Gal(b1-4)Glc
# In short: as §1
# [23] = target: Neu5Ac(a2-3)Gal(b1-4)GlcNAc
# In short: as §1
# [24] = target: Neu5Ac(a2-3)Gal(b1-4)GlcNAc(b1-2)Man(a1-3)[GlcNAc(b1-2)Man(b1-4)GlcNAc(b1-2)Man(a1-6)]Man(b1-4)GlcNAc(b1-4)GlcNAc
# In short: as §1
# [25] = target: Neu5Ac(a2-3)Gal(b1-4)GlcNAc(b1-2)Man(a1-3)[Neu5Ac(a2-6)Gal(b1-4)GlcNAc(b1-2)Man(a1-6)]Man(b1-4)GlcNAc(b1-4)GlcNAc
# In short: as §1
# [26] = target: Neu5Ac(a2-3)Gal(b1-4)GlcNAc(b1-3)Gal
# In short: as §1
# [27] = target: Neu5Ac(a2-3)Gal(b1-4)GlcNAc(b1-3)Gal(b1-3)GlcNAc
# In short: as §1
# [28] = target: Neu5Ac(a2-3)Gal(b1-4)GlcNAc(b1-3)Gal(b1-4)GlcNAc
# In short: as §1
# [29] = target: Neu5Ac(a2-3)Gal(b1-4)GlcNAc(b1-3)Gal(b1-4)GlcNAc(b1-3)Gal(b1-4)GlcNAc
# In short: as §1
# [30] = target: Neu5Ac(a2-3)Gal(b1-4)GlcNAc(b1-3)Gal(b1-4)[Fuc(a1-3)]GlcNAc
# In short: as §1
# [31] = target: Neu5Ac(a2-3)Gal(b1-4)GlcNAc(b1-3)GalNAc
# In short: as §1
# [32] = target: Neu5Ac(a2-3)Gal(b1-4)GlcNAc(b1-6)[Gal(b1-3)]GalNAc
# In short: as §1
# [33] = target: Neu5Ac(a2-3)Gal(b1-4)GlcNAc(b1-6)[Neu5Ac(a2-3)Gal(b1-3)]GalNAc
# In short: as §1
# [34] = target: Neu5Ac(a2-3)Gal(b1-4)GlcNAc6S
# In short: as §1
# [35] = target: Neu5Ac(a2-3)Gal(b1-4)[Fuc(a1-3)]GlcNAc
# In short: as §1
# [36] = target: Neu5Ac(a2-3)Gal(b1-4)[Fuc(a1-3)]GlcNAc(b1-3)Gal
# In short: as §1
# [37] = target: Neu5Ac(a2-3)Gal(b1-4)[Fuc(a1-3)]GlcNAc(b1-3)Gal(b1-4)GlcNAc
# In short: as §1
# [38] = target: Neu5Ac(a2-3)Gal(b1-4)[Fuc(a1-3)]GlcNAc(b1-3)Gal(b1-4)[Fuc(a1-3)]GlcNAc(b1-3)Gal(b1-4)[Fuc(a1-3)]GlcNAc
# In short: as §1
# [39] = target: Neu5Ac(a2-3)Gal(b1-4)[Fuc(a1-3)]GlcNAc(b1-3)GalNAc
# In short: as §1
# [40] = target: Neu5Ac(a2-3)Gal(b1-4)[Fuc(a1-3)]GlcNAc(b1-6)[Gal(b1-3)]GalNAc
# In short: as §1
# [41] = target: Neu5Ac(a2-3)Gal(b1-4)[Fuc(a1-3)]GlcNAc6S
# In short: as §1
# [42] = target: Neu5Ac(a2-3)Gal6S(b1-4)GlcNAc
# In short: as §1
# [43] = target: Neu5Ac(a2-3)Gal6S(b1-4)[Fuc(a1-3)]GlcNAc
# In short: as §1
# Neu5Ac(a2-3)GalNAc = target: Neu5Ac(a2-3)GalNAc
# In short: as §1
# [44] = target: Neu5Ac(a2-3)GalNAc(b1-4)GlcNAc
# In short: as §1
binder,measurement,setting,value
B1,glycan array binding signal (z-score),[1],-0.792
same,glycan array binding signal (z-score),[2],0.157
same,glycan array binding signal (z-score),[3],0.029
same,glycan array binding signal (z-score),Man(a1-3)[Man(a1-6)]Man,0.733
same,glycan array binding signal (z-score),[4],1.21
same,glycan array binding signal (z-score),[5],-1.06
same,glycan array binding signal (z-score),[6],0.49
same,glycan array binding signal (z-score),[7],0.92
same,glycan array binding signal (z-score),Man(a1-6)Man,-1.23
same,glycan array binding signal (z-score),Man(b1-4)GlcNAc,-0.439
same,glycan array binding signal (z-score),Neu5Ac(a2-3)Gal,-0.121
same,glycan array binding signal (z-score),[8],-0.183
same,glycan array binding signal (z-score),[9],-0.658
same,glycan array binding signal (z-score),[10],-0.296
same,glycan array binding signal (z-score),[11],1.93
same,glycan array binding signal (z-score),[12],-0.776
same,glycan array binding signal (z-score),[13],-0.425
same,glycan array binding signal (z-score),[14],-0.261
same,glycan array binding signal (z-score),[15],0.09
same,glycan array binding signal (z-score),[16],-0.209
same,glycan array binding signal (z-score),[17],0.002
same,glycan array binding signal (z-score),[18],0.387
same,glycan array binding signal (z-score),[19],3.13
same,glycan array binding signal (z-score),[20],-0.979
same,glycan array binding signal (z-score),[21],0.165
same,glycan array binding signal (z-score),[22],-0.048
same,glycan array binding signal (z-score),Neu5Ac(a2-3)Gal(b1-4)Glc,-0.33
same,glycan array binding signal (z-score),[23],-0.569
same,glycan array binding signal (z-score),[24],-0.519
same,glycan array binding signal (z-score),[25],-0.215
same,glycan array binding signal (z-score),[26],-0.777
same,glycan array binding signal (z-score),[27],-0.569
same,glycan array binding signal (z-score),[28],0.462
same,glycan array binding signal (z-score),[29],0.847
same,glycan array binding signal (z-score),[30],0.647
same,glycan array binding signal (z-score),[31],0.19
same,glycan array binding signal (z-score),[32],-0.015
same,glycan array binding signal (z-score),[33],-0.641
same,glycan array binding signal (z-score),[34],-1.05
same,glycan array binding signal (z-score),[35],-0.896
same,glycan array binding signal (z-score),[36],0.657
same,glycan array binding signal (z-score),[37],1.69
same,glycan array binding signal (z-score),[38],0.776
same,glycan array binding signal (z-score),[39],1.9
same,glycan array binding signal (z-score),[40],-0.153
same,glycan array binding signal (z-score),[41],-0.655
same,glycan array binding signal (z-score),[42],0.408
same,glycan array binding signal (z-score),[43],-0.397
same,glycan array binding signal (z-score),Neu5Ac(a2-3)GalNAc,0.697
same,glycan array binding signal (z-score),[44],-0.193

# A stretch of the results above:
binder,measurement,setting,value
B1,glycan array binding signal (z-score),[6],0.49
same,glycan array binding signal (z-score),[7],0.92
same,glycan array binding signal (z-score),Man(a1-6)Man,-1.23
same,glycan array binding signal (z-score),Man(b1-4)GlcNAc,-0.439
